No constants are given. Whether binding was seen depends on the method and setting. Some binding calls cover weakened binding; strength is not graded here.
Biological target: T1, EpCAM protein (960-EP-050 from RD Systems) (UniProt P16422)
T1 sequence (looked up): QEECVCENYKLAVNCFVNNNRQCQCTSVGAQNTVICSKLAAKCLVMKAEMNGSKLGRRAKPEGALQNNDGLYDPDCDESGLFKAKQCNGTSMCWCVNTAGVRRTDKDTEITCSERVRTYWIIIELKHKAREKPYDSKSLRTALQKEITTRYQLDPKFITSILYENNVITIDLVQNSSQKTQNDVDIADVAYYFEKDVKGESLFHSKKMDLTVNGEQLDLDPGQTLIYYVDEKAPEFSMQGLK
Assay: GMR sensor, EGFR captured by EpCAM, detected with anti-EGFR antibody-MNP

binding: binds
Substance: EGFR protein (from UniProt P00533 25-645) (receptor)

— patent US20110223612A1
